For at least one compound, name, drawing or mass did not settle the structure.
What was measured:
[1] = system: PI3K / Akt phosphorylation; test: Akt phosphorylation in 4E overexpressing MEF Akt1 wt cells, Western; assay type: cell-based, mouse; conditions: 50 μM for 1 hr
[2] = system: 4E mediated apoptotic rescue; test: 4E mediated apoptotic rescue; assay type: cell-based; conditions: FIG. 37
[3] = system: Akt; test: Akt phosphorylation; assay type: cell-based; conditions: FIGS. 35 and 36

| Structure (SMILES) | phosphorylation of Akt at T308 and S473 in 4E overexpressing cells [1] | effect on 4E mediated apoptotic rescue [2] | effect on Akt phosphorylation [3] |
| --- | --- | --- | --- |
| O=c1cc(N2CCOCC2)oc2c(-c3ccccc3)cccc12 [LY294002] | drastic reduction |  |  |
| CO[C@H]1C[C@@H]2CC[C@@H](C)[C@@](O)(O2)C(=O)C(=O)N2CCCC[C@H]2C(=O)O[C@H]([C@H](C)C[C@@H]2CC[C@@H](O)[C@H](OC)C2)CC(=O)[C@H](C)/C=C(\C)[C@@H](O)[C@@H](OC)C(=O)[C@H](C)C[C@H](C)/C=C/C=C/C=C/1C [Rapamycin] |  | partially inhibits Ribavirin effect | increases |

Source: patent US10472677B2, “Translational dysfunction based therapeutics” (Translational Therapeutics, Inc., priority 2005, dated 2019)
